The values below come from US20090252681A1 (Ablynx, published 2009).

Amino acid sequences for entries named in this document (tags omitted). Residues count along the entry.
UniProt P08069, residues 31-932: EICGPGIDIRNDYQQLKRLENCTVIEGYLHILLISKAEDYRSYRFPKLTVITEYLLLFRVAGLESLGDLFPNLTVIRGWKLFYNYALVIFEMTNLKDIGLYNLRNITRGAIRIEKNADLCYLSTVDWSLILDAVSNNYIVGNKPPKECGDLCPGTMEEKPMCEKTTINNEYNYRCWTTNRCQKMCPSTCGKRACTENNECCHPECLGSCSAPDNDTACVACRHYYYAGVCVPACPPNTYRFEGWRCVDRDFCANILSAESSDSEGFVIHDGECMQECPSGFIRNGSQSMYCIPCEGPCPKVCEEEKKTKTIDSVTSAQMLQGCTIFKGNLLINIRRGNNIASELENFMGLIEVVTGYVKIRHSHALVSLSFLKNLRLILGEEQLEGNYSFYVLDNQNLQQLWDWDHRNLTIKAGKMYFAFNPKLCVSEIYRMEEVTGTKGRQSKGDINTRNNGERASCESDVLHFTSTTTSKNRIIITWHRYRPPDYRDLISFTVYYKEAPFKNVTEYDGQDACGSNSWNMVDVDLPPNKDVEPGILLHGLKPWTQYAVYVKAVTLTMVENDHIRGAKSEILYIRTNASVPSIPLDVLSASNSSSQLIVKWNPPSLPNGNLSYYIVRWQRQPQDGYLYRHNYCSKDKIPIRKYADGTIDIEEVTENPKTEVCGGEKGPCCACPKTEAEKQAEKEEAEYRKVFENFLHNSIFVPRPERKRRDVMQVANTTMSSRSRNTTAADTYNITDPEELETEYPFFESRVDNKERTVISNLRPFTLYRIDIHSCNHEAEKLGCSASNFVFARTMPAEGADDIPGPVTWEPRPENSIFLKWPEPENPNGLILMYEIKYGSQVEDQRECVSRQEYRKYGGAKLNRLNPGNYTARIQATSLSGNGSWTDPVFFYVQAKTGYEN

Where two headings read alike, the source gives them in different places. Results are given in words; binding and its absence hold for the method and conditions named. Some results given as binding are weak or reduced against the parent protein; the word gives no strength.

The target of experiment [1] is T1, Recombinant human IGF-IR (human, UniProt P08069 31-932).
T1 construct: bought; also called rhIGFIR; rhIGF-IR

The target in experiment [2] is T1, Recombinant human IGF-IR. The experiment can be described thus: ligand inhibition assay: competition ELISA, rhIGFIR coated, Nanobody titrated against biotinylated IGF-I (IGF-I biot @50ng/ml).
Experiment [3] deals with T2, EGFR on A431 derived membrane vesicles (human, UniProt P00533 25-1210).
T2 construct: whole, on cells; presented in membrane vesicles coated on ELISA plates, not on intact cells; also called EGFR harboring A431 vesicles; EGFR expressing A431 vesicles

In experiment [4] the target is T2, EGFR on A431 derived membrane vesicles. This is another data set of the same source.
Experiment [5] concerns the target T3, cell surface expressed EGFR (human, UniProt P00533 25-1210).
T3 construct: whole, on cells; also called EGFR on A431 tumor cells; EGFR on HER14 cells

B1: PMP1C7 (VHH)
VHH: QVKLEESGGGLVQAGGSLRLSCVASGRTFSRTAMAWFRQAPGKEREFVATITWNSGTTRYADSVKGRFFISKDSAKNTIYLEMNSLEPEDTAVYYCAATAAAVITPTRGYYNYWGQGTQVTVSS
notes: anti-IGF-IR Nanobody; tag not described; also called IGR PMP1C7
In the case of B1, the binding entry in experiment [1] and in experiment [2] was “binds” in each case.

B2: 27-10-E8 (VHH)
VHH: EVQLVESGGGLVQAGGSLRLSCAASGRTFSTYTMAWFRQAPGKEREFVQGISRSDGGTYDADSVKGRFTISRDNAKNTVYLQMNSLKPEDTAVYFCAAASVKLVYVNPNRYSYWGQGTQVTVSS
notes: anti-EGFR Nanobody; tested as periplasmic extract or IMAC purified soluble Nanobody, tag not described; also called EGR 27-10-E8
B2: the binding entry in experiment [3], in experiment [4] and in experiment [5] was “binds” throughout.

B3: PMP4B11 (VHH)
VHH: EVQLVESGGGLVQPGGSLRLSCAASGSIFTFNAMGWYRQAPGKQRELVAVIISGGSTHYVDSVKGRFTISRDNAKKMVYLQMNSLKPEDTAVYYCNVKKFGDYWGQGTQVTVSS
Regarding B3, in experiment [1], the binding entry is given as “binds”.

B4: PMP2C7 (VHH)
VHH: QVKLEESGGGLVQPGGSLRLSCVASGRTFSNYAMGWFRQAPGQEREFVAAINWNSRSTYYADSVKGRFTISRLNARNTVYLQMNRLKPEDTAVYDCAASHDSDYGGTNANLYDYWGQGTQVTVSS
On to B4, for which the binding entry in experiment [1] is “binds”.

B5: PMP3G7 (VHH)
VHH: DVQLVESGGGLVQAGGSLRLSCAASESISTINVMAWYRQAPGKQRELVAEITRSGRTNYVDSVKGRFTISRDNAKNTMYLQMNSLNLEDTAVYYCRTIDGSWREYWGQGTQVTVSS
As to B5, the binding entry in experiment [1] is listed as “binds”.
